Data as given in patent publication US20050165047A1, “Crystalline fumarate salts of 1-azabicyclo[2.2.2]oct substituted furo[2,3-c]pyridinyl carboxamide and compositions and preparations thereof” (Pfizer Inc, priority 2002, published 2005).
This continues a long series; more values of the same kind are listed elsewhere.

Experiment: Moisture sorption by DMSG on a controlled atmosphere microbalance
Assay type: physicochemical
Settings: 25° C.
Procedure: The sorption of water by the solid lattice at a given relative humidity (RH) was measured by DMSG on a controlled atmosphere microbalance. Scans were carried out at 25° C. from 36% to 0% RH then ramped to 90% RH, and back down to 0% RH with a step size of 3% RH. A sample size of 8 to 14 mg was used. At each step, the balance was considered equilibrated when the mass change was less than 0.01 mg for five consecutive scans. There were 120 seconds between each scan.
Table 3 provides the moisture sorption data at 25° C. for Crystal Forms Ia and Ib of N-[1-azabicyclo[2.2.2]oct-3-yl]furo[2,3-c]pyridine-5-carboxamide.

Question: With `O=C(N[C@H]1CN2CCC1CC2)c1cc2ccoc2cn1` [Crystal Form Ia, N-[(3R)-1-azabicyclo[2.2.2]oct-3-yl]furo[2,3-c]pyridine-5-carboxamide] as the molecule, how does the “% dMass” value (RH 0.44%, 90-0% RH) read?
Answer: 0.002669%

Question: What about the “% dMass” value (RH 0.58%, 90-0% RH) of the same molecule?
Answer: 0%

Question: And the “% dMass” value (RH 2.02%, 90-0% RH)?
Answer: 0.01334%

Question: What about the “% dMass” value (RH 5.66%, 90-0% RH) of the same molecule?
Answer: 0.03114%

Question: What about the “% dMass” value (RH 8.84%, 90-0% RH) of the same molecule?
Answer: 0.04092%

Question: And the “% dMass” value (RH 12%, 90-0% RH)?
Answer: 0.04537%

Question: What about the “% dMass” value (RH 15.18%, 90-0% RH) of the same molecule?
Answer: 0.05426%

Question: What about the “% dMass” value (RH 18.42%, 90-0% RH) of the same molecule?
Answer: 0.05871%

Question: And the “% dMass” value (RH 21.92%, 90-0% RH)?
Answer: 0.06494%

Question: And the “% dMass” value (RH 25.16%, 90-0% RH)?
Answer: 0.07028%

Question: And the “% dMass” value (RH 25.92%, 36-0% RH)?
Answer: 0.0854%

Question: And the “% dMass” value (RH 28.4%, 90-0% RH)?
Answer: 0.0765%

Question: And the “% dMass” value (RH 29.02%, 36-0% RH)?
Answer: 0.08985%

Question: What about the “% dMass” value (RH 31.6%, 90-0% RH) of the same molecule?
Answer: 0.08451%

Question: And the “% dMass” value (RH 31.62%, 36-0% RH)?
Answer: 0.08985%

Question: What about the “% dMass” value (RH 34.84%, 90-0% RH) of the same molecule?
Answer: 0.08807%

Question: And the “% dMass” value (RH 38.08%, 90-0% RH)?
Answer: 0.09607%

Question: And the “% dMass” value (RH 41.42%, 90-0% RH)?
Answer: 0.105%

Question: What about the “% dMass” value (RH 44.74%, 90-0% RH) of the same molecule?
Answer: 0.113%

Question: What about the “% dMass” value (RH 47.94%, 90-0% RH) of the same molecule?
Answer: 0.121%

Question: And the “% dMass” value (RH 51%, 90-0% RH)?
Answer: 0.1325%

Question: What about the “% dMass” value (RH 54.06%, 90-0% RH) of the same molecule?
Answer: 0.1414%

Question: And the “% dMass” value (RH 57.24%, 90-0% RH)?
Answer: 0.1557%

Question: And the “% dMass” value (RH 60.44%, 90-0% RH)?
Answer: 0.169%

Question: What about the “% dMass” value (RH 63.18%, 90-0% RH) of the same molecule?
Answer: 0.1824%

Question: With `O=C(N[C@H]1CN2CCC1CC2)c1cc2ccoc2cn1` [Crystal Form Ib, N-[(3R)-1-azabicyclo[2.2.2]oct-3-yl]furo[2,3-c]pyridine-5-carboxamide] as the molecule, how does the “% dMass” value (RH 1.24%, 90-0% RH) read?
Answer: 0%

Question: And the “% dMass” value (RH 3.88%, 90-0% RH)?
Answer: 0.03501%

Question: What about the “% dMass” value (RH 7.04%, 90-0% RH) of the same molecule?
Answer: 0.06652%

Question: And the “% dMass” value (RH 10.28%, 90-0% RH)?
Answer: 0.09978%

Question: And the “% dMass” value (RH 13.58%, 90-0% RH)?
Answer: 0.1304%

Question: And the “% dMass” value (RH 16.86%, 90-0% RH)?
Answer: 0.1619%

Question: And the “% dMass” value (RH 20.06%, 90-0% RH)?
Answer: 0.1952%

Question: And the “% dMass” value (RH 23.26%, 90-0% RH)?
Answer: 0.2311%

Question: And the “% dMass” value (RH 26.5%, 90-0% RH)?
Answer: 0.2661%

Question: What about the “% dMass” value (RH 29.66%, 90-0% RH) of the same molecule?
Answer: 0.2993%

Question: What about the “% dMass” value (RH 31.08%, 36-0% RH) of the same molecule?
Answer: 0.4009%

Question: What about the “% dMass” value (RH 32.76%, 90-0% RH) of the same molecule?
Answer: 0.3335%

Question: And the “% dMass” value (RH 33.94%, 36-0% RH)?
Answer: 0.4315%

Question: And the “% dMass” value (RH 35.96%, 90-0% RH)?
Answer: 0.372%

Question: What about the “% dMass” value (RH 36.54%, 36-0% RH) of the same molecule?
Answer: 0.4613%

Question: What about the “% dMass” value (RH 39.06%, 90-0% RH) of the same molecule?
Answer: 0.4105%

Question: What about the “% dMass” value (RH 42.04%, 90-0% RH) of the same molecule?
Answer: 0.449%

Question: What about the “% dMass” value (RH 45.12%, 90-0% RH) of the same molecule?
Answer: 0.4963%

Question: What about the “% dMass” value (RH 48.12%, 90-0% RH) of the same molecule?
Answer: 0.5418%

Question: And the “% dMass” value (RH 51.08%, 90-0% RH)?
Answer: 0.5943%

Question: What about the “% dMass” value (RH 54.12%, 90-0% RH) of the same molecule?
Answer: 0.6608%

Question: And the “% dMass” value (RH 57%, 90-0% RH)?
Answer: 0.7291%

Question: And the “% dMass” value (RH 59.94%, 90-0% RH)?
Answer: 0.8219%

Question: What about the “% dMass” value (RH 62.72%, 90-0% RH) of the same molecule?
Answer: 0.9076%

Question: And the “% dMass” value (RH 65.6%, 90-0% RH)?
Answer: 1.008%
